Where “and” joins values, the source holds several entries; their conditions need not be identical. Equal values may be shown once. In all, about 310,000 compounds went through this assay and about 17,000 (5.5%) were called active. The shares of active, inactive and inconclusive entries below differ from those in the screen. Calls come from the whole dose curve; as a rule, active = well fitted inhibition curve with a large enough effect; inconclusive = small, poorly fitted or top-dose-only effect, or effect the other way; inactive = no such curve, though single readings can be large or run the other way. Potencies beside an inconclusive call are fits to weak or partial responses and may not hold up.
target: Nuclear receptor ROR-gamma (Mus musculus) (UniProt P51450); assay: qHTS for inhibitors of ROR gamma transcriptional activity; settings: Drosophila S2 Gal4-RORgamma UAS-luciferase reporter, 20 h; activity change, negative = inhibition: at 53.6 µM (top of the series); note: nearly all actives have a fitted effect of over 60% in size
How it was run: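 Luminescence from a UAS-regulated Photinus luciferase reporter in stably transfected Drosophila Schneider cells is measured; decreased signal marks ROR gamma inhibition. Fusion expression is induced by 700 uM copper sulfate for 20 hr.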
% is set by controls: 0 for no effect and ±100 for the full control effect; potency is the fitted concentration of half-maximal effect.

Chains of the proteins cited; added tags and fusions are not shown. Lines headed by an entry give the natural chain unless they say otherwise; changes in a name come on top.
UniProt P51450: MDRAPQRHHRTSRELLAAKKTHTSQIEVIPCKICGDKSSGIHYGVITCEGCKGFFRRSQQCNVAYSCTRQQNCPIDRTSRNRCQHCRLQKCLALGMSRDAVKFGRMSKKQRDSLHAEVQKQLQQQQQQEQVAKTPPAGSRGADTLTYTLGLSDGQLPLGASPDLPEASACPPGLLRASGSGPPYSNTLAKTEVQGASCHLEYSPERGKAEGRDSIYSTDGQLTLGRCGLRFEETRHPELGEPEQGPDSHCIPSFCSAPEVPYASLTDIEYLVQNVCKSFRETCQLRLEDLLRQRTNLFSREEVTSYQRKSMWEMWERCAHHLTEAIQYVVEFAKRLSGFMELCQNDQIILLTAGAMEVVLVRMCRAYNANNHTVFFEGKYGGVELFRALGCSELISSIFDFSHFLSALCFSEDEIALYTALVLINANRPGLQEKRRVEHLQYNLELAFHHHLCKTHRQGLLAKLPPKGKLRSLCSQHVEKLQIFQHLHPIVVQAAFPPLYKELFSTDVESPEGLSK

Row | Compound | Potency | activity change, negative = inhibition
1 | O=C(Nc1ccc(Cl)c(Cl)c1)c1ccc(Cl)c(Cl)c1 | inconclusive: 8.91 µM [activator, partial curve] | –
2 | COc1ccc(CCNC(=O)c2oc3ccc(OC)cc3c2C)cc1 | active: 11.2 µM | –
3 | CSc1nc(C)cc(SCC(=O)Nc2ccc(Cl)cc2Cl)n1 | – | inactive: -7.49%
4 | Cc1cc(Br)ccc1NC(=S)NC1CCCC1 | active: 3.16 µM | –
5 | Cc1nc(C2COc3ccccc3O2)sc1C(=O)O (stereo not given) | – | inactive: -2.52%
6 | Cc1cc(C)cc(NC(=S)NC2CC3CCCC(C2)N3C2CCCC2)c1 (stereo not given) | active: 35.5 µM | –
7 | Cc1oc(S(=O)(=O)N2CCCCC2)cc1NC(=O)Nc1ccc(F)cc1 | – | inactive: 22.6%
8 | COc1ccccc1/C=C/C(=O)c1ccc(NC(C)=O)cc1 | inconclusive: 10 µM [inhibitor, partial curve, poor fit] | –
9 | CNC1=C(Cl)C(=O)c2ccncc2C1=O | active: 2.82 µM | –
10 | COc1cc2c(cc1OC)C(C)N(C(=O)Nc1ccc(F)cc1)CC2 (stereo not given) | – | inactive: 17.1%
11 | CCCCCCCCCc1nc2sc3c(c2c(=O)n1NC(=O)c1ccc([N+](=O)[O-])cc1)CC(C)(C)OC3 | inconclusive: 35.5 µM [inhibitor, single point] | –
12 | O=C(NC(=S)Nc1nc(-c2ccccc2)cs1)c1cccnc1 | active: 3.98 µM | –
13 | CCCN(CC(=O)Nc1ccc(C)cc1Br)CC(=O)Nc1ccc(F)c(F)c1F | – | inactive: -102%
14 | COc1ccc(-c2cc(C(F)(F)F)nc(SCC(=O)Nc3sc4c(c3C#N)CCC4)n2)cc1 | – | inactive: 4.72%
15 | COc1ccccc1NC(=S)N1CCN(C/C=C/c2ccccc2)CC1 | inconclusive: 5.01 µM [inhibitor, partial curve, poor fit] | –
16 | O=C1c2[nH]nc(-c3ccccc3O)c2C(c2ccccc2)N1Cc1ccco1 (stereo not given) | inconclusive: 35.5 µM [inhibitor, single point] | –
17 | CCSc1nnc(NC(=O)Cc2ccc(OC)c(S(=O)(=O)N3CCOCC3)c2)s1 | – | inactive: -22.1%
18 | CN(CC(=O)NC(=O)NCc1ccccc1)Cc1cccc(Cl)c1Cl | inconclusive: 12.6 µM [activator, single point] | –
19 | CCOC(=O)c1ccccc1-c1csc(N)n1 | – | inactive: -3.99%
20 | Cc1ccc(C(=O)NCCc2ccccc2)cc1 | active: 4.47 µM | –
21 | O=C(NCCN1CCN(c2ccccc2)CC1)C1CCCN(S(=O)(=O)c2cnc[nH]2)C1 (stereo not given) | inconclusive: 20 µM [activator, partial curve, poor fit] | –
22 | Cc1nc2c(c(=O)c3ccccc3n2C)c(=O)n1-c1ccc(F)cc1 | inconclusive: 0.0071 µM [inhibitor, full curve, poor fit] | –
23 | COc1ccc(-n2c(=S)[nH]c3cc(C(=O)N4CCN(c5ccccc5)CC4)ccc3c2=O)c(OC)c1 | inconclusive: 20 µM [inhibitor, single point] | –
24 | C/C(=N\Nc1ccccn1)c1ccc(OC(F)F)cc1 | active: 14.1 µM | –
25 | CCOC(=O)N1CCC(=NNC(=O)NC2CCCCC2)CC1 | – | inactive: 6.09%

Row | Compound | Potency | activity change, negative = inhibition
26 | CC1(c2ccccc2)NC(=O)N(CC(=O)NCc2cccc(Cl)c2)C1=O (stereo not given) | – | inactive: 14.2%
27 | Cc1ccccc1NC(=S)c1nc2ccccc2[nH]1 | inconclusive: 11.2 µM [inhibitor, single point] | –
28 | Oc1ccc(Cl)cc1-c1cc(C(F)(F)C(F)F)nc(-c2ccccc2)n1 | – | inactive: -9.78%
29 | O=c1[nH]c2ccc(S(=O)(=O)Nc3ccc(Cl)cc3)cc2[nH]1 | inconclusive: 15.8 µM [activator, partial curve] | –
30 | Cc1ccc2c(c1)C(=O)C(=O)N2CC1COc2ccccc2O1 (stereo not given) | inconclusive: 0.126 µM [activator, full curve, poor fit] | –
31 | Cc1cc(C)n(C/C=C/Cn2nc(C)cc2C)n1 | inconclusive: 15.8 µM [inhibitor, partial curve, poor fit] | –
32 | Cc1ccc(NC(=O)CN(C)S(=O)(=O)c2ccc(Br)s2)cc1F | inconclusive: 35.5 µM [activator, single point] | –
33 | C/C(=N\NC(=O)Cn1c(C)nc2ccccc21)c1cccs1 | inconclusive: 20 µM [activator, partial curve, poor fit] | –
34 | COc1ccccc1-c1nnc(NC(=O)OCC(C)C)s1 | – | inactive: -14%
35 | CC(C)CN=C(NS(=O)(=O)c1ccccc1)C(Cl)(Cl)Cl | inconclusive: 3.16 µM [inhibitor, single point] | –
36 | COc1ccc(NC(=O)CSc2nc3c(sc4ccccc43)c(=O)n2CCCN2CCCC2)cc1 | inconclusive: 35.5 µM [inhibitor, single point] | –
37 | COc1ccc(CNC(=O)C2CCN(c3cc(C(=O)Nc4cccc(OC)c4)ccn3)CC2)cc1 | – | inactive: 8.15%
38 | O=C(NC1CCCCC1)c1cc(Cl)ccc1[N+](=O)[O-] | – | inactive: 1.5%
39 | O=C(NC1CC1)C1CCN(C2CCN(C(=O)c3ccc(C(F)(F)F)cc3)CC2)CC1 | – | inactive: 6.33%
40 | CCCC(c1nnnn1C(C)(C)CC)N(CCCO)Cc1cc2cc(C)cc(C)c2[nH]c1=O (stereo not given) | inconclusive: 35.5 µM [inhibitor, single point] | –
41 | C=CCOc1ccc(/C=N/Nc2ccccn2)cc1OC | – | inactive: 2.54%
42 | N=c1c2c(-c3ccccc3)c(-c3ccccc3)n(Cc3ccco3)c2ncn1CCCO | active: 3.16 µM | –
43 | Cc1ccc(NC(=O)c2ccc3c(c2)OCCO3)cc1C | active: 5.01 µM | –
44 | CC(C)(C)OC(=O)NCCCC[C@H](NC(=O)c1nc[nH]c1C(=O)N1CCN(c2ccccc2)CC1)C(=O)OC(C)(C)C | active: 12.6 µM | –
45 | CCOC(=O)C1CCCN(C(=S)Nc2cccc(Cl)c2)C1 (stereo not given) | inconclusive: 17.8 µM [inhibitor, single point] | –
46 | CCOC(=O)C1(Cc2cccc(F)c2)CCN(Cc2c(C)nn(CC)c2C)CC1 | inconclusive: 15.8 µM [activator, single point] | –
47 | CC1=C(C(=O)OCCC(C)C)C(c2ccc3c(c2)OCO3)NC(=O)N1 (stereo not given) | inconclusive: 22.4 µM [activator, single point] | –
48 | O=C(COC(=O)c1ccccc1C(=O)c1ccccc1)Nc1ccc(SC(F)F)cc1 | inconclusive: 35.5 µM [activator, single point] | –
49 | O=c1oc2ccccc2c2oc3cc(O)c(O)cc3c12 | inconclusive: 10 µM [inhibitor, partial curve, poor fit] and inconclusive: 17.8 µM [inhibitor, partial curve, poor fit] | –
50 | O=[N+]([O-])c1ccc(P(=O)(Cc2ccccc2)c2ccccc2O)cc1 (stereo not given) | – | inactive: -1.59%

Row | Compound | Potency | activity change, negative = inhibition
51 | O=C(/C=C/c1ccc(Cl)cc1Cl)Nc1cccc(S(=O)(=O)NC2=NCCC2)c1 | active: 7.08 µM | –
52 | Cc1ccc2sc(NC(=O)CSc3nc(C)cc(C)c3C#N)nc2c1 | active: 0.708 µM | –
53 | COc1ccc(C(=O)/C=C2\Sc3ccccc3N2C)cc1 | inconclusive: 14.1 µM [inhibitor, single point] | –
54 | CCCCC(=O)Nc1nnc(C2=COCCO2)o1 | active: 12.6 µM | –
55 | Cc1cc(C)c(/C([O-])=C(/C(=S)Nc2ccc(SC(F)F)cc2)[n+]2ccccc2)cc1C | active: 11.2 µM | –
56 | COc1ccccc1CNc1ccc2c(c1)CCC2 | – | inactive: 26%
57 | O=C(N/N=C/c1c[nH]c2ccccc12)c1cccc([N+](=O)[O-])c1 | active: 12.6 µM | –
58 | COc1cc2c(cc1OC)CN(C(=O)CSc1nnc(C)s1)CC2 | inconclusive: 35.5 µM [inhibitor, single point] | –
59 | Cc1ccc(O)c(C(=O)c2cnc3c(c2)CN(CCC(C)C)C(=O)N3)c1 | inconclusive: 22.4 µM [inhibitor, single point] | –
60 | COc1ccc(OC)c(/C=N/NC(=O)c2csc3ccccc23)c1 | active: 12.6 µM | –
61 | COc1nc(NCCc2ccc(OC)c(OC)c2)nc(Nc2ccccc2)n1 | inconclusive: 1.26 µM [activator, single point] | –
62 | Cn1c(-c2ccccc2)n[nH]c1=S | inconclusive: 12.6 µM [inhibitor, single point] | –
63 | CCOc1cc(C(=O)Nc2cc(C)on2)cc(OCC)c1OCC | active: 2.24 µM | –
64 | COc1cccc(Oc2ccc(C(F)(F)F)cc2N)c1 | inconclusive: 11.2 µM [activator, partial curve, poor fit] | –
65 | Cc1ccc(S(=O)(=O)NC2=C(N3CCN(c4ccccc4F)CC3)C(=O)c3ccccc3C2=O)cc1 | – | inactive: 10.7%
66 | S=C(NCc1ccccc1)N1CCCCC1 | inconclusive: 31.6 µM [inhibitor, single point] | –
67 | COC(=O)C1=NN(C(=O)c2ccc(Cl)cc2)C(O)(c2ccccc2)C1 (stereo not given) | inconclusive: 11.2 µM [inhibitor, partial curve, poor fit] | –
68 | CCn1cc(C(=O)N(C)CC(OC)OC)c(=O)c2cc(S(=O)(=O)N3CCOCC3)ccc21 | – | inactive: -3.46%
69 | CCC(=O)Nc1ccc(Nc2nc(C)c([N+](=O)[O-])c(Nc3ccc(NC(=O)CC)cc3)n2)cc1 | inconclusive: 20 µM [activator, single point] | –
70 | Cc1ccc(COc2cccc3c2CCN(Cc2ccc(F)cc2)C3=O)cc1 | inconclusive: 31.6 µM [activator, single point] | –
71 | COc1ccc(OC)c(S(=O)(=O)CC(O)CS(=O)(=O)c2ccccc2)c1 (stereo not given) | – | inactive: -2.64%
72 | O=C(N/N=C/c1ccc2c(c1)OCO2)c1cc(-c2ccc(F)cc2)nc2ccccc12 | inconclusive: 12.6 µM [inhibitor, partial curve] | –
73 | CN(CC(=O)Nc1ccc(C(N)=O)cc1)CC(=O)Nc1ccccc1Cl | – | inactive: 15%
74 | Cc1ccc(NC(=S)Nc2cc(C(=O)O)ccc2N2CC3CC(C2)c2cccc(=O)n2C3)cc1C (stereo not given) | active: 5.01 µM | –
75 | CN(C(=S)NC(=O)c1ccc(Cl)cc1)C1CCCCC1 | active: 0.316 µM | –

An excerpt of these results, comma-delimited:
Row,Compound,Potency,"activity change, negative = inhibition"
73,CN(CC(=O)Nc1ccc(C(N)=O)cc1)CC(=O)Nc1ccccc1Cl,–,inactive: 15%
74,Cc1ccc(NC(=S)Nc2cc(C(=O)O)ccc2N2CC3CC(C2)c2cccc(=O)n2C3)cc1C (stereo not given),active: 5.01 µM,–
75,CN(C(=S)NC(=O)c1ccc(Cl)cc1)C1CCCCC1,active: 0.316 µM,–
